Binding data for 1 molecule are collected here from paper PMC7341970.

No constants are given. Whether binding was seen depends on the method and setting. Binding seen in cells or lysates may run through a third protein. A result given as binding can be weak or reduced; the word gives no strength.

For the assay, the target named is HA-BRG1-N (N-terminal fragment of BRG1), in 293T (mouse). Briefly: co-IP; mapping in HEK293T cells transfected with tagged constructs, harvested after 48 h; whole cell lysate on antibody-coupled Dynabeads Protein G overnight at 4°C, Western blot.

B1: full-length ADNP, in 293T (protein, UniProt Q9Z103 1-1108)
chain: MFQLPVNNLGSLRKARKTVKKILSDIGLEYCKEHIEDFKQFEPNDFYLKNTTWEDVGLWDPSLTKNQDYRTKPFCCSACPFSSKFFSAYKSHFRNVHSEDFENRILLNCPYCTFNADKKTLETHIKIFHAPNSSAPSSSLSTFKDKNKNDGLKPKQADNVEQAVYYCKKCTYRDPLYEIVRKHIYREHFQHVAAPYIAKAGEKSLNGAVSLGTNAREECNIHCKRCLFMPKSYEALVQHVIEDHERIGYQVTAMIGHTNVVVPRAKPLMLIAPKPQDKKGMGLPPRISSLASGNVRSLPSQQMVNRLSIPKPNLNSTGVNMMSNVHLQQNNYGVKSVGQSYGVGQSVRLGLGGNAPVSIPQQSQSVKQLLPSGNGRSFGLGAEQRPPAAARYSLQTANTSLPPGQVKSPSVSQSQASRVLGQSSSKPPPAATGPPPSNHCATQKWKICTICNELFPENVYSVHFEKEHKAEKVPAVANYIMKIHNFTSKCLYCNRYLPTDTLLNHMLIHGLSCPYCRSTFNDVEKMAAHMRMVHIDEEMGPKTDSTLSFDLTLQQGSHTNIHLLVTTYNLRDAPAESVAYHAQNNAPVPPKPQPKVQEKADVPVKSSPQAAVPYKKDVGKTLCPLCFSILKGPISDALAHHLRERHQVIQTVHPVEKKLTYKCIHCLGVYTSNMTASTITLHLVHCRGVGKTQNGQDKTNAPSRLNQSPGLAPVKRTYEQMEFPLLKKRKLEEDADSPSCFEEKPEEPVVLALDPKGHEDDSYEARKSFLTKYFNKQPYPTRREIEKLAASLWLWKSDIASHFSNKRKKCVRDCEKYKPGVLLGFNMKELNKVKHEMDFDAEWLFENHDEKDSRVNASKTVDKKHNLGKEDDSFSDSFEHLEEESNGSGSPFDPVFEVEPKIPSDNLEEPVPKVIPEGALESEKLDQKEEEEEEEEEDGSKYETIHLTEEPAKLMHDASDSEVDQDDVVEWKDGASPSESGPGSQQISDFEDNTCEMKPGTWSDESSQSEDARSSKPAAKKKATVQDDTEQLKWKNSSYGKVEGFWSKDQSQWENASENAERLPNPQIEWQNSTIDSEDGEQFDSMTDGVADPMHGSLTGVKLSSQQA
As to B1, the binding entry is recorded as “binds”.
